Source: publication PMC3543382, “Elements of Transcriptional Machinery Are Compatible among Plants and Mammals” (PLoS ONE, 2013)
These are yes or no findings as the source states them, for the method shown. Binding seen in cells or lysates may run through a third protein. Some binding calls cover weakened binding; strength is not graded here. For some of these results: Tags and fused reporters may be left off the sequences shown.

Chains of the proteins cited; added tags and fusions are not shown. Residues count along the entry.
UniProt Q04206: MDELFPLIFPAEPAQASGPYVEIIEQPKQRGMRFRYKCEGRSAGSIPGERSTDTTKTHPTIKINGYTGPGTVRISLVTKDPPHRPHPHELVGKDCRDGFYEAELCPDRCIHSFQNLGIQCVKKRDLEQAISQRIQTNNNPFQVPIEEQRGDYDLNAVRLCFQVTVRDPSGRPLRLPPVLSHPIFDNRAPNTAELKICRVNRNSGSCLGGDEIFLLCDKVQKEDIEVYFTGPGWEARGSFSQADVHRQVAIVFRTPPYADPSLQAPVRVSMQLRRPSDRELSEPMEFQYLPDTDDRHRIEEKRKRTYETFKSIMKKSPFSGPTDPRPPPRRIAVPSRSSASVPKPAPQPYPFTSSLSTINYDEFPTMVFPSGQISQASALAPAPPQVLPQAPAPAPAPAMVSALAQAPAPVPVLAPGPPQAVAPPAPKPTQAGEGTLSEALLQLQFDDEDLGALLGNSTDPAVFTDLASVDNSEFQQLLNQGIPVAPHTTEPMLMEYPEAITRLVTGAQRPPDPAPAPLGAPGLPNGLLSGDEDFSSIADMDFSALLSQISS
UniProt P19838, residues 1-433: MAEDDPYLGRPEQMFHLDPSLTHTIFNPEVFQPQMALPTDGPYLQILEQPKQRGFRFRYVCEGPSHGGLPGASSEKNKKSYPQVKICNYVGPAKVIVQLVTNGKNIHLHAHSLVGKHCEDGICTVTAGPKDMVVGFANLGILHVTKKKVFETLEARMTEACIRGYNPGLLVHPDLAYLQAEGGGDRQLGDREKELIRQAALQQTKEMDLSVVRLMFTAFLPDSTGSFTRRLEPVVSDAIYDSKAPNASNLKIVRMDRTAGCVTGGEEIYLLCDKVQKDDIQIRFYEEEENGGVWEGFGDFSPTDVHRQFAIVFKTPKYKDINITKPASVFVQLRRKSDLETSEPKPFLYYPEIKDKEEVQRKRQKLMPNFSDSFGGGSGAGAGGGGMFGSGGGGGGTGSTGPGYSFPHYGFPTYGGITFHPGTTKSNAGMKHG
UniProt P25963: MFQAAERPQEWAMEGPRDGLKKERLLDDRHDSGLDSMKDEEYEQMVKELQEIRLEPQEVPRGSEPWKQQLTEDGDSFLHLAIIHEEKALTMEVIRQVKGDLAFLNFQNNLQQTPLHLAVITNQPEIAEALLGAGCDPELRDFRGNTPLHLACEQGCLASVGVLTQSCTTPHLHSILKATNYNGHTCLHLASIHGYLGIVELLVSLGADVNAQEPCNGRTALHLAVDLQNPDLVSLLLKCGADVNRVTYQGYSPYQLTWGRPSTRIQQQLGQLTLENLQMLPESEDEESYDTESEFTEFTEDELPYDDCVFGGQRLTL

Columns and labels:
[1] = molecular target: T1, Abi5-YFP (UniProt Q9SJN0); assay: FRET or BRET; sensitised-emission FRET between ECFP (donor) and EYFP/YFP (acceptor) fusion proteins co-expressed in living Arabidopsis thaliana mesophyll protoplasts; confocal laser scanning microscopy, excitation 458 nm and 514 nm
T1 sequence: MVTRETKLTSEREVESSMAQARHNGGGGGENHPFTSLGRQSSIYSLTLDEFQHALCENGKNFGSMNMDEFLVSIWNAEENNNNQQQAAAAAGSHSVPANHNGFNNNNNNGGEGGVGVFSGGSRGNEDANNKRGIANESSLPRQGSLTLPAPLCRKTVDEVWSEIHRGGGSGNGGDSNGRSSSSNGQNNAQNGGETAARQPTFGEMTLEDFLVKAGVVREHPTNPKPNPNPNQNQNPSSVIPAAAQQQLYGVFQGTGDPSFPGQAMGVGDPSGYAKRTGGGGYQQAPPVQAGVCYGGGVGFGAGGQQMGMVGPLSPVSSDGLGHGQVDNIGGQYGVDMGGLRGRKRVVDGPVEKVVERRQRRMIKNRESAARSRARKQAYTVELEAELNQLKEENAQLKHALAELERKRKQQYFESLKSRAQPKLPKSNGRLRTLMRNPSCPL

[2] = molecular target: RelA-EYFPNt and RelA-EYFPCt (human) (UniProt Q04206); assay: split reporter; EYFP-based BiFC (EYFP fragments 1-155 and 156-238) in living Arabidopsis protoplasts; EYFP emission normalised to co-expressed ECFP; controls RelA-EYFPNt/EYFPCt and EYFPNt/RelA-EYFPCt

| Substance | binding [1] | binding [2] |
| --- | --- | --- |
| p50-ECFP (from UniProt P19838 1-433) | no binding | – |
| IκB-ECFP (from UniProt P25963 1-317) | no binding | – |
| RelA-EYFPNt and RelA-EYFPCt (from UniProt Q04206 1-551) | – | binds weakly |
| RelA-ECFP (from UniProt Q04206 1-551) | no binding | – |
